From ChEMBL document CHEMBL4808225, “Discovery and Characterization of Selective and Ligand-Efficient DYRK Inhibitors” (J Med Chem, 2021)

Protein sequences, listed by entry. Tags and fused reporters are not part of them.
UniProt Q9Y463, whole entry: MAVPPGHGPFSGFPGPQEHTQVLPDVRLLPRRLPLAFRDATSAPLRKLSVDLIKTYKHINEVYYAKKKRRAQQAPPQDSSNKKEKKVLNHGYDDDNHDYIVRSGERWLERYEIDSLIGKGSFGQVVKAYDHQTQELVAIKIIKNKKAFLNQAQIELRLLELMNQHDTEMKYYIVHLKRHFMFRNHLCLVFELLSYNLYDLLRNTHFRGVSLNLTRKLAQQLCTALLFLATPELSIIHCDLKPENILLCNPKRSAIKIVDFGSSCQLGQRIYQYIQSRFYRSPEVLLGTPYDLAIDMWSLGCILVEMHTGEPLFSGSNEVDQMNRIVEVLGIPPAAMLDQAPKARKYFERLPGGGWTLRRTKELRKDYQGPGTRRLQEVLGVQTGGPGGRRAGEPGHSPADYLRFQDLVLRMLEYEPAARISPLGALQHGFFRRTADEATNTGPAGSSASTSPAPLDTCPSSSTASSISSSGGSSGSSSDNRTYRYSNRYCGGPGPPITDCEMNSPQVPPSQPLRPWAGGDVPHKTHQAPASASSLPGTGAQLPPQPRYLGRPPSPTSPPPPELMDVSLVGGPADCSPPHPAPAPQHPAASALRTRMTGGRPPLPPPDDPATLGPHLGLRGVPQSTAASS

Target: Dual specificity tyrosine-phosphorylation-regulated kinase 1B (Homo sapiens, UniProt Q9Y463)
Assay: Binding affinity to wild-type human full length DYRK1B (M1 to S629 residues) expressed in bacterial expression system measured after 1 hr by competitive binding assay

SMILES: CN(C)c1nccc(-c2cnn3ncccc23)n1
- Kd: 56 nM
